Assay results as given in paper PMC9942973.
Results are given in words; binding and its absence hold for the method and conditions named. Binding seen in cells or lysates may run through a third protein. Some results given as binding are weak or reduced against the parent protein; the word gives no strength.

Biological target: pUL97-FLAG (HCMV pUL97, wild type, FLAG-tagged) (HCMV (human cytomegalovirus)) (UniProt P16788)
Assay: co-IP; NPCs transduced with lentivirus expressing UL97-FLAG or K355M-FLAG, harvested 72 h post-transduction; lysate (1 mg total protein) with 1 ug anti-FLAG antibody overnight at 4°C, protein A+G agarose beads, 5 washes with Cell Lysis Buffer, immunoblot; normal IgG as control

B1: regulatory factor X 7 (RFX7) (protein, UniProt Q2KHR2 1-1460)
chain: MAEEQQQPPPQQPDAHQQLPPSAPNSGVALPALVPGLPGTEASALQHKIKNSICKTVQSKVDCILQEVEKFTDLEKLYLYLQLPSGLSNGEKSDQNAMSSSRAQQMHAFSWIRNTLEEHPETSLPKQEVYDEYKSYCDNLGYHPLSAADFGKIMKNVFPNMKARRLGTRGKSKYCYSGLRKKAFVHMPTLPNLDFHKTGDGLEGAEPSGQLQNIDEEVISSACRLVCEWAQKVLSQPFDTVLELARFLVKSHYIGTKSMAALTVMAAAPAGMKGITQPSAFIPTAESNSFQPQVKTLPSPIDAKQQLQRKIQKKQQEQKLQSPLPGESAAKKSESATSNGVTNLPNGNPSILSPQPIGIVVAAVPSPIPVQRTRQLVTSPSPMSSSDGKVLPLNVQVVTQHMQSVKQAPKTPQNVPASPGGDRSARHRYPQILPKPANTSALTIRSPTTVLFTSSPIKTAVVPASHMSSLNVVKMTTISLTPSNSNTPLKHSASVSSATGTTEESRSVPQIKNGSVVSLQSPGSRSSSAGGTSAVEVKVEPETSSDEHPVQCQENSDEAKAPQTPSALLGQKSNTDGALQKPSNEGVIEIKATKVCDQRTKCKSRCNEMLPGTSTGNNQSTITLSVASQNLTFTSSSSPPNGDSINKDPKLCTKSPRKRLSSTLQETQVPPVKKPIVEQLSAATIEGQKQGSVKKDQKVPHSGKTEGSTAGAQIPSKVSVNVSSHIGANQPLNSSALVISDSALEQQTTPSSSPDIKVKLEGSVFLLDSDSKSVGSFNPNGWQQITKDSEFISASCEQQQDISVMTIPEHSDINDLEKSVWELEGMPQDTYSQQLHSQIQESSLNQIQAHSSDQLPLQSELKEFEPSVSQTNESYFPFDDELTQDSIVEELVLMEQQMSMNNSHSYGNCLGMTLQSQSVTPGAPMSSHTSSTHFYHPIHSNGTPIHTPTPTPTPTPTPTPTPTPTSEMIAGSQSLSRESPCSRLAQTTPVDSALGSSRHTPIGTPHSNCSSSVPPSPVECRNPFAFTPISSSMAYHDASIVSSSPVKPMQRPMATHPDKTKLEWMNNGYSGVGNSSVSGHGILPSYQELVEDRFRKPHAFAVPGQSYQSQSRHHDTHFGRLTPVSPVQHQGATVNNTNKQEGFAVPAPLDNKGTNSSASSNFRCRSVSPAVHRQRNLSGSTLYPVSNIPRSNVTPFGSPVTPEVHVFTNVHTDACANNIAQRSQSVPLTVMMQTAFPNALQKQANSKKITNVLLSKLDSDNDDAVRGLGMNNLPSNYTARMNLTQILEPSTVFPSANPQNMIDSSTSVYEFQTPSYLTKSNSTGQINFSPGDNQAQSEIGEQQLDFNSTVKDLLSGDSLQTNQQLVGQGASDLTNTASDFSSDIRLSSELSGSINDLNTLDPNLLFDPGRQQGQDDEATLEELKNDPLFQQICSESMNSMTSSGFEWIESKDHPTVEMLG
Question: Which binding does the source give for B1 here?
Answer: binds
